Experimental data as given in PubChem BioAssay AID1347423 (Functional Genomics Laboratory (NCATS/FGL), 2020).
Screen size: about 52,000 sequences; about 210 (0.4%) were called active.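 Rule for the calls: active = gene whose silencing raises cell survival under the drug, median off-target-corrected z-score across its silencing RNAs 2 or more; inactive = the rest.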 This is one part of the list.

assay: Resistance to Poly (ADP-Ribose) Polymerase inhibitor: Gene Identification via Genome-wide siRNA Screen; conditions: mouse BRCA2 R2336H ES cells, olaparib, CellTiter-Glo viability; hits give high values
Summary of the method: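 Genome-wide siRNA screen (3 siRNAs/gene, 20 nM) in mouse ES cells carrying hypomorphic BRCA2 R2336H; olaparib 500 nM added 48 h post-transfection, CellTiter-Glo viability 72 h later. Normalized to plate-median negative control; MAD z-scores, gene median, seed-adjusted.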

Sequence | z-score
CCCAUCCAAUAAGCAAUUGTT against A330042H22 | inactive: 0.287
GCUAGGACAUUCAUUCAACTT against Gm1805 | inactive: 0.842
CCCAGACAGAUUAUGUAUCTT against E330040A16Rik | inactive: -0.451
GGGUUCAAUGCAGUCAUGATT against Slc25a20 | inactive: -1.28
GCUUUGUUAGUGUUAGUCUTT against Lamc1 | inactive: 0.771
GGAAGACUCGGUUCAUCAUTT against Pnliprp1 | inactive: 1.14
CCUCAUCGACAUAAUGAUUTT against Samhd1 | inactive: -1.42
GCUCUCAUGACUCCUUUUATT against Olfr99 | inactive: -0.694
GGUGGAUUAAGUCUCAAAATT against Pcdhb22 | inactive: 2.75
GCACAAGUCCCUACCACUUTT against Birc3 | inactive: -0.329
GGGAAGAAGCUAAAGAAGATT against Waspip | inactive: -0.419
CGUGGUAGUUAAUUGUUCATT against Map3k1 | inactive: -0.958
CCGUUUUCGCUUUGAGAAATT against Smarcad1 | inactive: -0.273
GGCCAAUGACCAGACCUUGTT against Hrh1 | inactive: 1.47
GCUAGAGGAACUAGAACCATT against Mrpl54 | inactive: -1.56
GAGUGUGAGGACUCAGACUTT against 5330440M15Rik | inactive: -2.4
GGAAAGUGAAAGUUAGUUUTT against Cbx6 | inactive: 0.431
GCACCAUGUAUACAAAAGATT against Pcdhb3 | inactive: 1.24
AGAUCGUGGACCAUGUGAATT against Nxph4 | inactive: 0.524
GCUUGAUGACUCUAAACCUTT against Runx2 | inactive: 0.119
GGCCCGAAACAAGAAAUCCTT against Ikbke | inactive: 0.255
GGUUUUGUAGGCAUGCUUGTT against Slc10a3 | inactive: 0.352

Sequence | z-score
GGGCACAAGUACCAUCUUATT against Lxn | inactive: 0.152
GGAGAAUGUGUUGGUCAUUTT against C230090D14 | inactive: -0.298
GGAGCAUCUCAAACCUUCATT against 6030463G20Rik | inactive: -0.814
GGGAAAAGUGGGAGAUUUUTT against Rpn1 | inactive: -0.688
GGAUGAACAUUAAACUUCGTT against Ctsb | inactive: 0.46
CCAUUCUGUGAUUACUGAGTT against Olfr787 | inactive: 0.177
GGACAGAUCGAAUGCCAGUTT against 4930402E16Rik | inactive: 2.8
GGCUCUCAAUGCCUACUUUTT against Pou6f1 | inactive: 0.624
CCAAUGUCUACUCAGAUCUTT against Rab11fip4 | inactive: -0.403
GCAAGUGCGACUGUAUCUGTT against Gdpd2 | inactive: 1.49
GCCUAGGUAGCUGUGUUAUTT against Gucy2f | inactive: -0.226
GGAUGACUUGUGAAUAUUUTT against Tnfsf7 | inactive: -0.362
CGACCCUACAGAGGACAUUTT against BB220380 | inactive: -0.412
GGUGAAUCCUUCGUGGACATT against Cml4 | inactive: -1.69
CCUGCUAAGUGAAUUUGUGTT against 0610011D08Rik | inactive: -1.15
GGCUAAAGAUCGCAUUCAGTT against Zdhhc6 | inactive: 0.138
GGCUUUAUUUAUCAGGAUCTT against Lsamp | inactive: 1.29
GCCUUGUGGUAUUUGAUCGTT against Fbxw9 | inactive: 0.673
GGAAAGCACCCAAGAAAUGTT against Gspt1 | inactive: 0.504
GGAAUGACAAGCAACCAGCTT against Foxp1 | inactive: -0.162
GGUGUGUUCCCAACUGGUGTT against Olfr1125 | inactive: 0.74
GGUUGUGUUAUUCAGAUCUTT against Olfr1316 | inactive: 0.134

Reprinted at random: four entries already listed
Sequence | z-score
CCUCAUCGACAUAAUGAUUTT against Samhd1 | inactive: -1.42
GCCUUGUGGUAUUUGAUCGTT against Fbxw9 | inactive: 0.673
GCUCUCAUGACUCCUUUUATT against Olfr99 | inactive: -0.694
GGCUUUAUUUAUCAGGAUCTT against Lsamp | inactive: 1.29

More entries

Sequence | z-score
CGCAUUCAAUUCCUUUCAATT against Aass | inactive: -0.108
GGACAUUUUUGACAUUGAATT against Masp1 | inactive: 0.0286
CCGCUUUGUCAGCAUGUGGTT against ORF61 | inactive: -0.208
CGGUGCUCUUACAUAGCAGTT against Appbp2 | inactive: -0.226
GAUUUAGCUUGGUGAACCGTT against F830014G06Rik | inactive: 1.42
GGAACUGCUCGACAAAGCUTT against MGC86034 | inactive: -0.393
GGACAGUAUAAAACUCCAATT against Apg3l | inactive: -0.849
CCAUUCUUAGUUCACUAUATT against 1190002H23Rik | inactive: 0.112
GCAGAAUGGCCUCUUCUACTT against C1qtnf2 | inactive: 0.0833
GCUUUCCGGAAUACGAGCUTT against Snapc3 | inactive: -0.406
CCUCAAGAUAGGUUUCUACTT against Mmp23 | inactive: -0.49
GGACAAAGUGACUUCUUGUTT against Gng7 | inactive: 0.363
GGUUGAGGUUGGUAAAAAUTT against Havcr2 | inactive: 0.426
CGCGGACAUCUAUGACAAATT against Phpt1 | inactive: -0.848
GGAAUGCAGAAGAUUGUUATT against Olfr745 | inactive: -0.489
GGAGAAGAAGAUUUUUGGCTT against Gpr108 | inactive: -0.111
GGAAUGUUCCGAUUAUUUATT against 4933425K02Rik | inactive: 1.79
GCCGCACAUGAACAGAACCTT against 2900006B13Rik | inactive: 0.235
GGCCUACGAAGUGCAAAGATT against 2610511M17Rik | inactive: 0.823
GCCUUCGACAGUUUCUAGATT against Grca | inactive: -0.222
CCAGUUCACCAUAUGCUGCTT against Tdpoz3 | inactive: -0.0743
GGGAACAGAAAUUAAAGGATT against Fanca | inactive: 1.64
